# Source: publication PMC11044369
# Sequences of proteins named here, by UniProt entry; tags and fusion partners are left off.
# UniProt Q96FF9: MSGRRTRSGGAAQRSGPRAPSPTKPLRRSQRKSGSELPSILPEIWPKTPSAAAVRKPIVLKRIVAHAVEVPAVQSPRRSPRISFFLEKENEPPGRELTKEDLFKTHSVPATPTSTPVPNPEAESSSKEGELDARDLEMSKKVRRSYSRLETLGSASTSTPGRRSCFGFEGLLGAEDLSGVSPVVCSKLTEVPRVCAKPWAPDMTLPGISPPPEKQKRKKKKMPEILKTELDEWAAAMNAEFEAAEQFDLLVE
# UniProt P68104: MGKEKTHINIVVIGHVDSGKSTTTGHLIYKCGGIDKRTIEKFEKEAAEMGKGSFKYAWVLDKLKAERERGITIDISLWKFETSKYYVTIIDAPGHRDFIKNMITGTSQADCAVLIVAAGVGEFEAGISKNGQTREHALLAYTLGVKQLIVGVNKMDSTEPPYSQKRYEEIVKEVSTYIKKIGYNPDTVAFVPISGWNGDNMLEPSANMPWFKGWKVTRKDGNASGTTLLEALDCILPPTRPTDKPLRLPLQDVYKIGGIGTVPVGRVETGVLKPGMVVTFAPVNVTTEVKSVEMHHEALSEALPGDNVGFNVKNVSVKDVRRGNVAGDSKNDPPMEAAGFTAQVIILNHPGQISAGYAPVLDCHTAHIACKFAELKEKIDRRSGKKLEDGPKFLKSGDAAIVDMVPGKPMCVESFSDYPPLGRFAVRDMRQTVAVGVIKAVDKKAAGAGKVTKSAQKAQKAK
# No constants are given. Whether binding was seen depends on the method and setting. In cells and extracts the contact can be indirect. Some binding calls cover weakened binding; strength is not graded here.
# Molecular target: FLAG-CDCA5 (cell division cycle associated 5) (human) (UniProt Q96FF9)
# Assay: co-IP; lysate of ACHN cells overexpressing FLAG-CDCA5; immunoprecipitation with anti-FLAG antibody, western blot of the candidates
substance,measurement,value
Eukaryotic Translation Elongation Factor 1 Alpha 1 (EEF1A1) (from UniProt P68104 1-462),binding,binds
